Source: PubChem BioAssay AID504808 (Drosophila RNAi Screening Center, 2011)

- Screen: 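Chromatin factors that keep E2F targets switched off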 (primary screen)
- Cell system: Drosophila S2 cells
- Knock-down reagent: long dsRNA against Drosophila genes
- Measurement: 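Firefly luciferase driven by E2F sites, normalised to Renilla luciferase on the same minimal promoter, measured by plate reader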
- Reading the numbers: E2F firefly: higher = more E2F reporter activity; Renilla normaliser: higher = more normaliser reporter signal
- Active means: 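a knock-down counted as active when the firefly/Renilla E2F signal rose above 50%, a threshold chosen arbitrarily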
The deposit covers about 21,000 reagents; below is an unselected part of those that have a named target and a result. In the full data, 18 (0.084%) are marked active. 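Raw counts without plate normalisation, one of two replicates; the ratio scores behind the calls were not deposited.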 Reagents against one gene are numbered here. Not stated in the record: the amount of reagent, the time to read-out.

IFT54 (GeneID 41739)
- E2F firefly, rep 1: 1.22e5
- Renilla normaliser, rep 1: 5382
- Outcome: inactive

SmD1 (GeneID 44668)
- E2F firefly, rep 1: 71105
- Renilla normaliser, rep 1: 5283
- Outcome: inactive

ATP8B (GeneID 41469)
- E2F firefly, rep 1: 1.38e5
- Renilla normaliser, rep 1: 6387
- Outcome: inactive

CG30103 (GeneID 36969)
- E2F firefly, rep 1: 1.41e5
- Renilla normaliser, rep 1: 4959
- Outcome: inactive

CG31633 (GeneID 33931)
- E2F firefly, rep 1: 1.48e5
- Renilla normaliser, rep 1: 5308
- Outcome: inactive

AOX2 (GeneID 41895)
- E2F firefly, rep 1: 1.20e5
- Renilla normaliser, rep 1: 6355
- Outcome: inactive

Ssu72 (GeneID 32973)
- E2F firefly, rep 1: 1.39e5
- Renilla normaliser, rep 1: 6220
- Outcome: inactive

CG17681 (GeneID 35086)
- E2F firefly, rep 1: 96417
- Renilla normaliser, rep 1: 4070
- Outcome: inactive

Sr-CII (GeneID 44219)
- E2F firefly, rep 1: 92423
- Renilla normaliser, rep 1: 4445
- Outcome: inactive

CG31928 (GeneID 326175)
- E2F firefly, rep 1: 84966
- Renilla normaliser, rep 1: 4374
- Outcome: inactive

Cyp4ac1 (GeneID 33754)
- E2F firefly, rep 1: 93865
- Renilla normaliser, rep 1: 3742
- Outcome: inactive

CG4467 (GeneID 42747)
- E2F firefly, rep 1: 1.06e5
- Renilla normaliser, rep 1: 6117
- Outcome: inactive

Afti (GeneID 41744)
- E2F firefly, rep 1: 73363
- Renilla normaliser, rep 1: 3161
- Outcome: inactive

RAF2 (GeneID 39821) #1
- E2F firefly, rep 1: 83357
- Renilla normaliser, rep 1: 3603
- Outcome: inactive

RAF2 (GeneID 39821) #2
- E2F firefly, rep 1: 1.59e5
- Renilla normaliser, rep 1: 7498
- Outcome: inactive

Tfb4 (GeneID 33294)
- E2F firefly, rep 1: 1.40e5
- Renilla normaliser, rep 1: 5343
- Outcome: inactive

CG17019 (GeneID 36425)
- E2F firefly, rep 1: 3022
- Renilla normaliser, rep 1: 191
- Outcome: inactive

CG31467 (GeneID 318751)
- E2F firefly, rep 1: 1.37e5
- Renilla normaliser, rep 1: 6320
- Outcome: inactive

CG9123 (GeneID 32462)
- E2F firefly, rep 1: 1.36e5
- Renilla normaliser, rep 1: 5222
- Outcome: inactive

Mal-B1 (GeneID 34597)
- E2F firefly, rep 1: 1.43e5
- Renilla normaliser, rep 1: 4815
- Outcome: inactive

CG13367 (GeneID 31013) #1
- E2F firefly, rep 1: 1.24e5
- Renilla normaliser, rep 1: 5892
- Outcome: inactive

CG13367 (GeneID 31013) #2
- E2F firefly, rep 1: 51613
- Renilla normaliser, rep 1: 3826
- Outcome: inactive

CG6800 (GeneID 42562)
- E2F firefly, rep 1: 1.65e5
- Renilla normaliser, rep 1: 7577
- Outcome: inactive

CG13494 (GeneID 37497)
- E2F firefly, rep 1: 1.05e5
- Renilla normaliser, rep 1: 4505
- Outcome: inactive

CG14866 (GeneID 41854)
- E2F firefly, rep 1: 1.20e5
- Renilla normaliser, rep 1: 5899
- Outcome: inactive

CG6435 (GeneID 36894)
- E2F firefly, rep 1: 1.52e5
- Renilla normaliser, rep 1: 4655
- Outcome: inactive

CG14096 (GeneID 40113)
- E2F firefly, rep 1: 1.51e5
- Renilla normaliser, rep 1: 7701
- Outcome: inactive

CG14024 (GeneID 33760) #1
- E2F firefly, rep 1: 1.32e5
- Renilla normaliser, rep 1: 4919
- Outcome: inactive

CG14024 (GeneID 33760) #2
- E2F firefly, rep 1: 1.04e5
- Renilla normaliser, rep 1: 3628
- Outcome: inactive

para (GeneID 32619) #1
- E2F firefly, rep 1: 78494
- Renilla normaliser, rep 1: 2573
- Outcome: inactive

para (GeneID 32619) #2
- E2F firefly, rep 1: 1.44e5
- Renilla normaliser, rep 1: 5774
- Outcome: inactive

CG9861 (GeneID 37692)
- E2F firefly, rep 1: 88869
- Renilla normaliser, rep 1: 4182
- Outcome: inactive

CG8993 (GeneID 38301)
- E2F firefly, rep 1: 1.02e5
- Renilla normaliser, rep 1: 4118
- Outcome: inactive

CG33752 (GeneID 3771860)
- E2F firefly, rep 1: 1.31e5
- Renilla normaliser, rep 1: 5132
- Outcome: inactive

CG16964 (GeneID 34605)
- E2F firefly, rep 1: 89487
- Renilla normaliser, rep 1: 3778
- Outcome: inactive

CG2003 (GeneID 43761)
- E2F firefly, rep 1: 1.26e5
- Renilla normaliser, rep 1: 5508
- Outcome: inactive

Part of the list above, set out differently.
{"Gene":"CG30103 (GeneID 36969)","reagent":1,"E2F firefly, rep 1":1.41e5,"Renilla normaliser, rep 1":4959,"Outcome":"inactive"}
{"Gene":"CG31633 (GeneID 33931)","reagent":1,"E2F firefly, rep 1":1.48e5,"Renilla normaliser, rep 1":5308,"Outcome":"inactive"}
{"Gene":"AOX2 (GeneID 41895)","reagent":1,"E2F firefly, rep 1":1.20e5,"Renilla normaliser, rep 1":6355,"Outcome":"inactive"}
{"Gene":"Ssu72 (GeneID 32973)","reagent":1,"E2F firefly, rep 1":1.39e5,"Renilla normaliser, rep 1":6220,"Outcome":"inactive"}
{"Gene":"CG17681 (GeneID 35086)","reagent":1,"E2F firefly, rep 1":96417,"Renilla normaliser, rep 1":4070,"Outcome":"inactive"}
{"Gene":"Sr-CII (GeneID 44219)","reagent":1,"E2F firefly, rep 1":92423,"Renilla normaliser, rep 1":4445,"Outcome":"inactive"}
